Results are given in words; binding and its absence hold for the method and conditions named. Binding can be weak; no strength is given.
Biological target: GST-ErpQ (Borrelia burgdorferi strain B31)
Experiment: SPR

B1: C1s enzyme (activated form of human C1s) (enzyme, UniProt P09871 16-437; P09871 438-688)
chain 1: EPTMYGEILSPNYPQAYPSEVEKSWDIEVPEGYGIHLYFTHLDIELSENCAYDSVQIISGDTEEGRLCGQRSSNNPHSPIVEEFQVPYNKLQVIFKSDFSNEERFTGFAAYYVATDINECTDFVDVPCSHFCNNFIGGYFCSCPPEYFLHDDMKNCGVNCSGDVFTALIGEIASPNYPKPYPENSRCEYQIRLEKGFQVVVTLRREDFDVEAADSAGNCLDSLVFVAGDRQFGPYCGHGFPGPLNIETKSNALDIIFQTDLTGQKKGWKLRYHGDPMPCPKEDTPNSVWEPAKAKYVFRDVVQITCLDGFEVVEGRVGATSFYSTCQSNGKWSNSKLKCQPVDCGIPESIENGKVEDPESTLFGSVIRYTCEEPYYYMENGGGGEYHCAGNGSWVNEVLGPELPKCVPVCGVPREPFEEKQR
chain 2: IIGGSDADIKNFPWQVFFDNPWAGGALINEYWVLTAAHVVEGNREPTMYVGSTSVQTSRLAKSKMLTPEHVFIHPGWKLLEVPEGRTNFDNDIALVRLKDPVKMGPTVSPICLPGTSSDYNLMDGDLGLISGWGRTEKRDRAVRLKAARLPVAPLRKCKEVKVEKPTADAEAYVFTPNMICAGGEKGMDSCKGDSGGAFAVQDPNDKTKFYAAGLVSWGPQCGTYGLYTRVKNYVDWIMKTMQENSTPRED
For B1, the binding was “binds”.
